No constants are given. Whether binding was seen depends on the method and setting. Some results given as binding are weak or reduced against the parent protein; the word gives no strength. For some assays here: Sequences can lack the tags named with a protein.
B1: Recombinant Endocan labeled with Alexa488 (ligand, UniProt Q9NQ30 20-184)
chain: WSNNYAVDCPQHCDSSECKSSPRCKRTVLDDCGCCRVCAAGRGETCYRTVSGMDGMKCGPGLRCQPSNGEDPFGEEFGICKDCPYGTFGMDCRETCNCQSGICDRGTGKCLKFPFFQYSVTKSSNRFVSLTEHDMASGDGNIVREEVVKENAAGSPVMRKWLNPR
modifications: Alexa Fluor 488 label (Microscale Protein Labeling Kit)

Protein sequences, listed by entry. Tags and fused reporters are not part of them. Lines headed by an entry give the natural chain unless they say otherwise; changes in a name come on top.
UniProt P16234: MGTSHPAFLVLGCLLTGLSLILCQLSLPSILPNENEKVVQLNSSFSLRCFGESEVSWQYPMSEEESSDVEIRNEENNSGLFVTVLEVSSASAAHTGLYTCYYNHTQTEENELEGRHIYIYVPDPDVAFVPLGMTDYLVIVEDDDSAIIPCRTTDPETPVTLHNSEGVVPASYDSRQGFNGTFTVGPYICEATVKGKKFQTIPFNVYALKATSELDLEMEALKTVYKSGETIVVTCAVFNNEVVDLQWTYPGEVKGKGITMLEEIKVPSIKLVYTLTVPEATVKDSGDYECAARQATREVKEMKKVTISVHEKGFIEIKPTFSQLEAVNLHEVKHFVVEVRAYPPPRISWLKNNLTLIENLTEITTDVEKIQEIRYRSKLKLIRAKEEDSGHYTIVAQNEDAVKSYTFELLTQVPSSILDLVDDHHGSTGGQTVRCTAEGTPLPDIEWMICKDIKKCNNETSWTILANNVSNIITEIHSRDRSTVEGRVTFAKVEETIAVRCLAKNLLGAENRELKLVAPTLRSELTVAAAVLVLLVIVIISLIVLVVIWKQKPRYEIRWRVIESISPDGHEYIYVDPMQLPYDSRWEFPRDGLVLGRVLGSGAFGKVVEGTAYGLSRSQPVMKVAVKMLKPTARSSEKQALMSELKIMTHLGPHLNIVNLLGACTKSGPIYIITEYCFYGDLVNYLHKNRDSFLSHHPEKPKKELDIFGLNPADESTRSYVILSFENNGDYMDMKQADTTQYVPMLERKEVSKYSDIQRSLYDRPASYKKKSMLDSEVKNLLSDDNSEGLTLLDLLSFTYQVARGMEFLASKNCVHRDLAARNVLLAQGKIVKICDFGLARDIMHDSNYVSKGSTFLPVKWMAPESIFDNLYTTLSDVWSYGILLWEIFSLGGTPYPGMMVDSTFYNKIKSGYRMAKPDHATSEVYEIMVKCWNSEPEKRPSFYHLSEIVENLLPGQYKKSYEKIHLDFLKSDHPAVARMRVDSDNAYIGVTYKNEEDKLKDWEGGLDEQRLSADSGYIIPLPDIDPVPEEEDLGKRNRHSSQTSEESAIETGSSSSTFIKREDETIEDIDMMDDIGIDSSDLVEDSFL

Legend:
[1] = molecular target: T1, Recombinant His-tagged Endocan (UniProt Q9NQ30); assay: pull-down
T1 sequence: B1 chain

[2] = molecular target: PDGFRA receptor, endogenous in patient-derived glioblastoma cells (human (endogenous in patient-derived gliomasphere lines)) (UniProt P16234); assay: flow cytometry on cells

Row | Molecule | binding [1] | binding [2]
1 | Fc-tagged recombinant PDGFRA (from UniProt P16234 24-528) (Fc fusion) | binds | 
2 | B1 |  | binds

Reference: publication doi:10.1101/2020.10.12.335091
